The values below come from patent US7250401B2, “Therapeutic compositions” (Advanced Therapeutics and Diagnostics, LC, priority 2001, dated 2007).

This series can be described thus: Reaction with thionitrobenzoate (detection of thiol-reactive substances, loss of absorbance at 412 nm). The settings on record: 0.01 ml of 5 mM aqueous solution, anaerobic cuvette (argon), 25° C., within 6 hours; followed up to 24 hours. Format: physicochemical. As to the method: A stock solution of 5-thio-2-nitrobenzoate (hereafter referred to as thionitrobenzoate) was prepared by reduction of 5,5′-dithiobis(2-nitrobenzoic acid) (hereafter referred to as DTNB, Aldrich Chemical Company). This stock solution was prepared by mixing 0.1 ml of 0.1 M DTNB dissolved in ethanol (396 mg of DTNB in 10 ml of ethanol), 0.1 ml of 1 M aqueous potassium phosphate buffer (prepared by mixing equal volumes of 1 M monobasic potassium phosphate with 1 M dibasic potassium phosphate), and 0.025 ml of 1 M sodium borohydride dissolved in 1 M NaOH on ice. After incubating this mixture for 10 minutes at ice temperature, 0.1 mL of 1 M monobasic potassium phosphate was added and the resultant solution was diluted to a final volume of 2 ml by addition of 1.675 ml of water. […]
If 0.01 ml of the 10 mM stock of thionitrobenzoate, obtained by sodium borohydride reduction of DTNB, was diluted with 0.89 ml of water and 0.1 ml of 1 M phosphate buffer, it gave an absorbance at 412 nm of 1.36 in a 1 cm pathlength cuvette. If 0.01 ml of the 8.7 mM stock of thionitrobenzoate obtained by 2-mercaptoethanol reduction of DTNB was diluted with 0.89 ml of water and 0.1 ml of 1 M phosphate buffer, it gave an absorbance at 412 nm of 1.18 in a 1 cm pathlength cuvette. […]

Take `CCN(CC)C(=O)OSC` [DECOSMe, S-Methyl-O-(N,N-Diethylcarbamoyl)Sulfenate]: the “loss in absorbance at 412 nm” value is given as 0.54. The entry for `CCN(CC)C(=O)[S+](C)[O-]` (stereo not drawn) [DETC-MeSO, S-Methyl-N,N-Diethylthiolcarbamate Sulfoxide] is “no changes in absorbance”.
